Reference: PubChem BioAssay AID1688 (National Center for Advancing Translational Sciences (NCATS), 2009)
In all, about 220,000 compounds went through this assay and about 2,400 (1.1%) were called active. The inconclusive results got no clear call from the source; some entries with a clear call stand among them for comparison. Calls come from the whole dose curve; as a rule, active = well fitted inhibition curve with a large enough effect; inconclusive = small, poorly fitted or top-dose-only effect, or effect the other way; inactive = no such curve, though single readings can be large or run the other way. A potency beside an inconclusive call is a rough fit, not a confirmed value.

Assay: qHTS Multiplex Assay to Identify Dual Action Probes in a Cell Model of Huntington: Aggregate Formation (GFP); note: nearly all actives have a fitted effect of over 60% in size
Settings: PC12 HttQ103-GFP aggregates, Acumen cytometry, 40 h; activity change, negative = inhibition: at 46.1 µM (top of the series) unless noted
How it was run: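 Read-out: GFP aggregate count by laser scanning cytometer (488 nm excitation, 500-530 nm emission, 1–25 µm objects >6 SD above background). Cells: PC12, inducible HTTex1-Q103-GFP, 100 nM tebufenozide; compounds titrated.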
% is set by controls: 0 for no effect and ±100 for the full control effect; potency is the fitted concentration of half-maximal effect.

Row | Structure (SMILES) | Potency | activity change, negative = inhibition
1 | CC(=O)N1CC(=O)N=C1SCC(=O)Nc1nc(-c2ccccc2)c(-c2ccccc2)s1 | inconclusive: 31.6 µM [activator, single point] | –
2 | Cc1nn(C)cc1CNC(=O)c1cc2n(n1)C(C(F)(F)F)CC(c1cccs1)N2 (stereo not given) | inconclusive: 11.2 µM [inhibitor, partial curve] | –
3 | O=C(Nc1ccccc1)c1cc2n(n1)C(C(F)(F)F)CC(C1CC1)N2 (stereo not given) | – | inactive: -6.94% [at 9.22 µM]
4 | c1ccc(-n2cnc3ccccc32)cc1 | inconclusive: 8.91 µM [inhibitor, partial curve] | –
5 | Cc1cc(C(=O)N/N=C/c2ccc(O)c([N+](=O)[O-])c2)n[nH]1 | – | inactive: -15.2%
6 | O=C1c2ccccc2C(=O)N1CCn1nc(Cl)nc1Cl | inconclusive: 1.12 µM [inhibitor, full curve, poor fit] | –
7 | Nc1ncnc(Sc2ccc(Cl)cc2)c1[N+](=O)[O-] | inconclusive: 14.1 µM [inhibitor, single point] | –
8 | CCc1cc2ccc(OC)cc2nc1SCC(=O)Nc1cc(C)on1 | – | inactive: 9.15%
9 | CC(C)C1N=C2c3ccccc3N=C(SCC(=O)c3ccc(O)c(O)c3)N2C1=O (stereo not given) | inconclusive: 25.1 µM [inhibitor, single point] | –
10 | CC(C)(C)NC(=O)c1cccnc1Sc1ccccc1 | – | inactive: 5.58%
11 | O=C1c2ccccc2C(Nc2ccc(F)c(Cl)c2)N1Cc1ccco1 (stereo not given) | inconclusive: 35.5 µM [inhibitor, single point] | –
12 | NS(=O)(=O)c1cccc(NC(=O)COC(=O)COc2ccc3ccccc3c2)c1 | – | inactive: 37.9%
13 | COc1ccc(CNC(=O)c2cccc(N(C)C)c2)cc1 | – | inactive: 3.42%
14 | CCOc1ccc(NC(=O)CCCOc2cc(=O)n(C)c3ccccc23)cc1 | inconclusive: 14.1 µM [activator, partial curve] | –
15 | O=C(c1cnc2c(c1)COc1ccc(Cl)cc1-2)c1ccccc1O | inconclusive: 7.94 µM [inhibitor, partial curve] | –
16 | CC1(C)CC(=O)C(=Cc2cn(CCC#N)nc2-c2ccc(Cl)cc2)C(=O)C1 | – | inactive: -19.2%
17 | O=[N+]([O-])/C=C/c1cn(Cc2ccc(F)cc2)c2ccccc12 | inconclusive: 35.5 µM [inhibitor, single point] | –
18 | Cc1ccc(OCCCCN2CCC(C)CC2)c(Br)c1 | inconclusive: 2.82 µM [activator, full curve, poor fit] | –
19 | OC1CCCN(Cc2ccc3c(c2)Cc2ccccc2-3)C1 (stereo not given) | inconclusive: 3.55 µM [inhibitor, single point] | –
20 | Cc1cccc(C2c3[nH]c4ccccc4c3CCN2C(=O)c2cc(CC(C)C)nc(C)n2)n1 (stereo not given) | inconclusive: 0.501 µM [inhibitor, full curve, poor fit] | –

Complete entries, quoted from the list:
`c1ccc(-n2cnc3ccccc32)cc1` as listed: Potency: inconclusive: 8.91 µM [inhibitor, partial curve]
`O=C(Nc1ccccc1)c1cc2n(n1)C(C(F)(F)F)CC(C1CC1)N2` (stereo not given) as listed: activity change, negative = inhibition: inactive: -6.94% [at 9.22 µM]
